Where two headings read alike, the source gives them in different places. These are yes or no findings as the source states them, for the method shown. Binding seen in cells or lysates may run through a third protein. Here binding means that the protein was enriched with, or labelled near, the bait; the list need not be complete. For part of these data: Tags and fused reporters may be left off the sequences shown. Values belong to the molecule of their own block, whether it stands above or below them.
How the values were obtained:
Assay in all cases: proximity labelling
[1] = biological target: PSMA4-miniTurbo-FLAG (HEK293T cell line) (UniProt P25789)
PSMA4-BirA*-FLAG [2] = biological target: PSMA4-BirA*-FLAG (UniProt P25789)
[3] = biological target: T1, PSMA4-miniTurbo with FLAG tag (ProteasomeID mouse) (UniProt Q9R1P0)
T1 sequence: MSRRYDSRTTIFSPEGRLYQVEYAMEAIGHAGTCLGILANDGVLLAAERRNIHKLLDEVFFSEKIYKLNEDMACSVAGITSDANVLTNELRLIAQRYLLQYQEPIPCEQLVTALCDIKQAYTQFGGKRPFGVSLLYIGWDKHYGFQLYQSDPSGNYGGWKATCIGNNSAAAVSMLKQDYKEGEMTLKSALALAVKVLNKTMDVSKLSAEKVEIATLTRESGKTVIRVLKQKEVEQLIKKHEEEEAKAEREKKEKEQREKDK

The chains behind the UniProt entries cited, without tags or fusion partners. Residues count along the entry.
UniProt P48643: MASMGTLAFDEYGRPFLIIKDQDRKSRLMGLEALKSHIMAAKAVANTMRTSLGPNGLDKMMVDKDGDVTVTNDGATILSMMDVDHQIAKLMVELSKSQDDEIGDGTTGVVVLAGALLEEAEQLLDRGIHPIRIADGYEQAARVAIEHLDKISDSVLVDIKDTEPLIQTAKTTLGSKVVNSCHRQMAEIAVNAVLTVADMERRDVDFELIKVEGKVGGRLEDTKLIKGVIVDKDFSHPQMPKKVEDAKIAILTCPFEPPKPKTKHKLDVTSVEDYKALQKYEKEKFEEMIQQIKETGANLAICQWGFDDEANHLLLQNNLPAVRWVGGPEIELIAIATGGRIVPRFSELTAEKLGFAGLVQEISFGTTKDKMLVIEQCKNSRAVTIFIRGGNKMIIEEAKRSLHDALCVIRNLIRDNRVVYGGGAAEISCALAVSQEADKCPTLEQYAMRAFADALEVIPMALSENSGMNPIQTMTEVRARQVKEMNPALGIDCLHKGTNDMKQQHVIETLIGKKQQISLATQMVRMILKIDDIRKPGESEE
UniProt Q9BXM7, residues 78-581: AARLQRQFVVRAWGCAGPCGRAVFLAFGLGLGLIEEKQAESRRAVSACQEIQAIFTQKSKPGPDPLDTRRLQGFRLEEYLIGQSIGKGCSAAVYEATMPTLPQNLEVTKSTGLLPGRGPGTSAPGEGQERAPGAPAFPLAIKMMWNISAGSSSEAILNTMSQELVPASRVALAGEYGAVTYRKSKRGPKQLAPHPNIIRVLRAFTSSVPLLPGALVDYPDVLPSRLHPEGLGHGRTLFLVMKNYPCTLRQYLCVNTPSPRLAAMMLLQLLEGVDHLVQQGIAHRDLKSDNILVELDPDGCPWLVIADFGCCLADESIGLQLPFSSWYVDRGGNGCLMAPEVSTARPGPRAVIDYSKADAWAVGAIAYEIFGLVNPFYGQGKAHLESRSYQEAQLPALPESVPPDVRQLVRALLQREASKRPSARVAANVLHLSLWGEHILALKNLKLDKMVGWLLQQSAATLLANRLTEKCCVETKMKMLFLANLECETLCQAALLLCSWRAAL
UniProt Q99832: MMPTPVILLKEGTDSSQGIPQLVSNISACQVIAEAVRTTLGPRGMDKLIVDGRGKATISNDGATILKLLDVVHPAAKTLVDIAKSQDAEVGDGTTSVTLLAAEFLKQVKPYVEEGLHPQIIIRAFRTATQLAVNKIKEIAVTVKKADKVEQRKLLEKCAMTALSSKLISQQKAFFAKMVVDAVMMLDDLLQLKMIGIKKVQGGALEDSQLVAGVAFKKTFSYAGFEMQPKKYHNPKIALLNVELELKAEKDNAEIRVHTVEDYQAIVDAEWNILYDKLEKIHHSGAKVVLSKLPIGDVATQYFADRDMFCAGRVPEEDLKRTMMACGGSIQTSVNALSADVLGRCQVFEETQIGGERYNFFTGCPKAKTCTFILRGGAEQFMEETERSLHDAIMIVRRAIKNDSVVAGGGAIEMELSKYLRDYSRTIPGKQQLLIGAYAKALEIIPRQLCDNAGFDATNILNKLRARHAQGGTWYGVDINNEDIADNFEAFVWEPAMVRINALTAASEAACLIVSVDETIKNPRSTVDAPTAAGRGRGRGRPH
UniProt Q9WVA4: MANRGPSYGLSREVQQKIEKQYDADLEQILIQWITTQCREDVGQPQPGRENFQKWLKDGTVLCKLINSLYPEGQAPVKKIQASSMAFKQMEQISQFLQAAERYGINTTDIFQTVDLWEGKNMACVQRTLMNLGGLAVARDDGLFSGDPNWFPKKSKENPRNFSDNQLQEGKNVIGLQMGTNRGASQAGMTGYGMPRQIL
UniProt P01106: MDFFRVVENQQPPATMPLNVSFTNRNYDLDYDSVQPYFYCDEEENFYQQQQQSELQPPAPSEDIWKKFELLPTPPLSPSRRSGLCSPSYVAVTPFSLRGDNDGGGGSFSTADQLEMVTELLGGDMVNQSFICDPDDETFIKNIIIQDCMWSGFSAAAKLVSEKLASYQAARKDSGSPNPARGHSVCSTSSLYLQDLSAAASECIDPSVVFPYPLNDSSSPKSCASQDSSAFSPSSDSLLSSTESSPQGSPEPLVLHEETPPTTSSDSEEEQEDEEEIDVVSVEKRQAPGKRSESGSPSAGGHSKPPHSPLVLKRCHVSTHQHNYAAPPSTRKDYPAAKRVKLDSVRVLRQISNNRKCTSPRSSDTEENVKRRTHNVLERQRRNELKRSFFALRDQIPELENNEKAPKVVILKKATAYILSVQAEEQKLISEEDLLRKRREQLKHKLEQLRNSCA
UniProt Q53EQ6: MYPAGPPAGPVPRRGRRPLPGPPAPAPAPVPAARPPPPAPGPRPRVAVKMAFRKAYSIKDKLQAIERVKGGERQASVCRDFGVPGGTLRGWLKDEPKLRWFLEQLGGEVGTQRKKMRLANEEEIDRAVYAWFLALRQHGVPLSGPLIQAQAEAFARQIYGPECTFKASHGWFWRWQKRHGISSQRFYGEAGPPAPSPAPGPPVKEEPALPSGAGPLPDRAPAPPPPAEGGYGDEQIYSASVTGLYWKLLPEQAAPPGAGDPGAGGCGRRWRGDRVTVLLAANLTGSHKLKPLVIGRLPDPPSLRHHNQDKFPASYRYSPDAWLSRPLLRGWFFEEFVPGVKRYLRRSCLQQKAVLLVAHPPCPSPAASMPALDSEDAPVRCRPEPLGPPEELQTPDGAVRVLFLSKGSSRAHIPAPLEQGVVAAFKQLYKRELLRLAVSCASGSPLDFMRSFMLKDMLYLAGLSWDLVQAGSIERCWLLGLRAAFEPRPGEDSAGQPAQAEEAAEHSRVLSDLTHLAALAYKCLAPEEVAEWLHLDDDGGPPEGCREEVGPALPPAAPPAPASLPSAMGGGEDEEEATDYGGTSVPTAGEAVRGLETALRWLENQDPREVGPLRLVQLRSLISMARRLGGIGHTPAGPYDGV
UniProt P37802: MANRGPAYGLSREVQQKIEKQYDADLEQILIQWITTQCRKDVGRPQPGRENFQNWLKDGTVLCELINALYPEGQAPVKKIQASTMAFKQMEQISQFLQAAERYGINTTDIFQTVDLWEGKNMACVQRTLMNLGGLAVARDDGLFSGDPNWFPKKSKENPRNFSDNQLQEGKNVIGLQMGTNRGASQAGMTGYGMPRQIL

[4] = biological target: PSMA4-miniTurbo-FLAG (HEK293T cell line) (UniProt P25789); remark: listed apart in the source
PSMA4-BirA*-FLAG [5] = biological target: PSMA4-BirA*-FLAG (UniProt P25789); remark: listed apart in the source
[6] = biological target: T1, PSMA4-miniTurbo with FLAG tag (ProteasomeID mouse); remark: listed apart in the source

binding (PSMA4-BirA*-FLAG [2]): binds
Molecule: CCT5 (from UniProt P48643 1-541)

binding [1]: binds
Molecule: PINK1 (from UniProt Q9BXM7 78-581)

binding (PSMA4-BirA*-FLAG [2]): binds
Molecule: CCT7 (from UniProt Q99832 1-543)

binding [3]: binds
Molecule: transgelin 2 (TAGLN2), endogenous in mouse organs (from UniProt Q9WVA4 1-199)

binding [4]: binds
B2: BRCA1-associated ATM activator 1 (protein, UniProt Q6PJG6 1-821)
chain: MDPECAQLLPALCAVLVDPRQPVADDTCLEKLLDWFKTVTEGESSVVLLQEHPCLVELLSHVLKVQDLSSGVLSFSLRLAGTFAAQENCFQYLQQGELLPGLFGEPGPLGRATWAVPTVRSGWIQGLRSLAQHPSALRFLADHGAVDTIFSLQGDSSLFVASAASQLLVHVLALSMRGGAEGQPCLPGGDWPACAQKIMDHVEESLCSAATPKVTQALNVLTTTFGRCQSPWTEALWVRLSPRVACLLERDPIPAAHSFVDLLLCVARSPVFSSSDGSLWETVARALSCLGPTHMGPLALGILKLEHCPQALRTQAFQVLLQPLACVLKATVQAPGPPGLLDGTADDATTVDTLLASKSSCAGLLCRTLAHLEELQPLPQRPSPWPQASLLGATVTVLRLCDGSAAPASSVGGHLCGTLAGCVRVQRAALDFLGTLSQGTGPQELVTQALAVLLECLESPGSSPTVLKKAFQATLRWLLSSPKTPGCSDLGPLIPQFLRELFPVLQKRLCHPCWEVRDSALEFLTQLSRHWGGQADFRCALLASEVPQLALQLLQDPESYVRASAVTAMGQLSSQGLHAPTSPEHAEARQSLFLELLHILSVDSEGFPRRAVMQVFTEWLRDGHADAAQDTEQFVATVLQAASRDLDWEVRAQGLELALVFLGQTLGPPRTHCPYAVALPEVAPAQPLTEALRALCHVGLFDFAFCALFDCDRPVAQKSCDLLLFLRDKIASYSSLREARGSPNTASAEATLPRWRAGEQAQPPGDQEPEAVLAMLRSLDLEGLRSTLAESSDHVEKSPQSLLQDMLATGGFLQGDEADCY

binding (PSMA4-BirA*-FLAG [5]): binds
B3: immunoglobulin-binding protein 1 (IGBP1), endogenous in HEK293T (protein, UniProt P78318 1-339)
chain: MAAEDELQLPRLPELFETGRQLLDEVEVATEPAGSRIVQEKVFKGLDLLEKAAEMLSQLDLFSRNEDLEEIASTDLKYLLVPAFQGALTMKQVNPSKRLDHLQRAREHFINYLTQCHCYHVAEFELPKTMNNSAENHTANSSMAYPSLVAMASQRQAKIQRYKQKKELEHRLSAMKSAVESGQADDERVREYYLLHLQRWIDISLEEIESIDQEIKILRERDSSREASTSNSSRQERPPVKPFILTRNMAQAKVFGAGYPSLPTMTVSDWYEQHRKYGALPDQGIAKAAPEEFRKAAQQQEEQEEKEEEDDEQTLHRAREWDDWKDTHPRGYGNRQNMG

More lines, now with the values behind:

Molecule: MYC (from UniProt P01106 1-454)
binding [1]: binds

Molecule: Tigger transposable element-derived protein 5 (from UniProt Q53EQ6 1-642)
binding [1]: binds

Molecule: transgelin 2 (TAGLN2), endogenous in HEK293T (from UniProt P37802 1-199)
binding (PSMA4-BirA*-FLAG [2]): binds

B1: armadillo containing protein 6 (protein, UniProt Q6NXE6 1-501)
chain: MSERCCSRYSSGASIGCTPTSTQAKMVSKRIAQETFDAAVRENIEEFAMGPEEAVKEAVEQFESQGVDLSNIVKTAPKVSADGSQEPTHDILQMLSDLQESVASSRPQEVSAYLTRFCDQCKQDKACRFLAAQKGAYPIIFTAWKLATAGDQGLLLQSLNALSVLTDGQPDLLDAQGLQLLVATLTQNADEADLTCSGIRCVRHACLKHEQNRQDLVKAGVLPLLTGAITHHGHHTDVVREACWALRVMTFDDDIRVPFGHAHNHAKMIVQENKGLKVLIEATKAFLDNPGILSELCGTLSRLAIRNEFCQEVVDLGGLSILVSLLADCNDHQMRDQSGVQELVKQVLSTLRAIAGNDDVKDAIVRAGGTESIVAAMTQHLTSPQVCEQSCAALCFLALRKPDNSRIIVEGGGAVAALQAMKAHPQKAGVQKQACMLIRNLVAHGQAFSKPILDLGAEALIMQARSAHRDCEDVAKAALRDLGCHVELRELWTGQRGNLAP
binding [4]: binds

B4: CCT2 (protein, UniProt P78371 1-535)
chain: MASLSLAPVNIFKAGADEERAETARLTSFIGAIAIGDLVKSTLGPKGMDKILLSSGRDASLMVTNDGATILKNIGVDNPAAKVLVDMSRVQDDEVGDGTTSVTVLAAELLREAESLIAKKIHPQTIIAGWREATKAAREALLSSAVDHGSDEVKFRQDLMNIAGTTLSSKLLTHHKDHFTKLAVEAVLRLKGSGNLEAIHIIKKLGGSLADSYLDEGFLLDKKIGVNQPKRIENAKILIANTGMDTDKIKIFGSRVRVDSTAKVAEIEHAEKEKMKEKVERILKHGINCFINRQLIYNYPEQLFGAAGVMAIEHADFAGVERLALVTGGEIASTFDHPELVKLGSCKLIEEVMIGEDKLIHFSGVALGEACTIVLRGATQQILDEAERSLHDALCVLAQTVKDSRTVYGGGCSEMLMAHAVTQLANRTPGKEAVAMESYAKALRMLPTIIADNAGYDSADLVAQLRAAHSEGNTTAGLDMREGTIGDMAILGITESFQVKRQVLLSAAEAAEVILRVDNIIKAAPRKRVPDHHPC
binding (PSMA4-BirA*-FLAG [5]): binds

B5: immunoglobulin-binding protein 1 (IGBP1), endogenous in mouse organs (protein, UniProt Q61249 1-340)
chain: MAASEDELLLPRLPELFETSKKLLEDVEVATEPTGSRTIQDKVSKGLELLEKAAGMLSQLDLFSRNEDLEEIASTDLKYLMVPALQGALTMKQVNPSKRLDHLQRAREHFVHFLTQCHCYHVAEFQLPQTKTNSAENNTASSSMAYPNLVAMASQRQAKIERYKQKKEVEHRLSALKSAVESGQADDERVREYHLLHLRRWIAVSLEELESIDQEIKILKEKDSPREETACHSSLPEKPPMKPFILTRNKAQAKVFGTGYPSLATMTVSDWYEQHQKYGVLPDRGIAKPASADFQRAAQQQEDQEQKDEESEEKALHRMREWDDWKDTHPRGYGNRQNMG
binding [6]: binds

— doi:10.1101/2022.08.09.503299
